These are yes or no findings as the source states them, for the method shown. In cells and extracts the contact can be indirect. These calls come from enrichment with a bait or labelling near it, and not all partners need be listed.
Molecular target: TRIM1-269aa-Flag (human)
Assay: affinity purification with mass spectrometry; IP with anti-Flag antibody (or IgG) from 293T cells with TRIM1-269aa-Flag or control vector (PCDH); gel bands digested with trypsin, LC-MS

B1: MARCKS (myristoylated alanine-rich c-kinase substrate) (protein, UniProt P29966 1-332)
chain: MGAQFSKTAAKGEAAAERPGEAAVASSPSKANGQENGHVKVNGDASPAAAESGAKEELQANGSAPAADKEEPAAAGSGAASPSAAEKGEPAAAAAPEAGASPVEKEAPAEGEAAEPGSPTAAEGEAASAASSTSSPKAEDGATPSPSNETPKKKKKRFSFKKSFKLSGFSFKKNKKEAGEGGEAEAPAAEGGKDEAAGGAAAAAAEAGAASGEQAAAPGEEAAAGEEGAAGGDPQEAKPQEAAVAPEKPPASDETKAAEEPSKVEEKKAEEAGASAAACEAPSAAGPGAPPEQEAAPAEEPAAAAASSACAAPSQEAQPECSPEAPPAEAAE
B1 was tested, and the binding was “binds”.

Reference: article PMC11097450
